Test [1] deals with T1, tRNA splicing endonuclease subunit TSEN15 (human) (UniProt Q8WW01).
T1 sequence: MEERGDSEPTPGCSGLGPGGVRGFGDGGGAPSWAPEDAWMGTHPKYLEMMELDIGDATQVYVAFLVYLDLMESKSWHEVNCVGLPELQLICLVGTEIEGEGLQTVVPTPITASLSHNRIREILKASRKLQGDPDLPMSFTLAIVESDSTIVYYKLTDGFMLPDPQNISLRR
Kind of test: co-expression and co-purification.

For test [2], the target named is T2, His6-TSEN15, expressed in HEK293 cells (human) (UniProt Q8WW01).
T2 sequence: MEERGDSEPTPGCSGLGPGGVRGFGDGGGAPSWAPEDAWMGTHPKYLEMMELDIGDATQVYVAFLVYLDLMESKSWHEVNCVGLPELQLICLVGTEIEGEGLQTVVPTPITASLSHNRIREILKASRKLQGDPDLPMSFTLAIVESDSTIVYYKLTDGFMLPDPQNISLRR
Kind of test: pull-down.

Results are given in words; binding and its absence hold for the method and conditions named. For part of these data: Binding seen in cells or lysates may run through a third protein. Some results given as binding are weak or reduced against the parent protein; the word gives no strength. For part of these data: Where a sequence is shown, tags or fusion partners need not be part of it.

B1: TSEN34 R58W (PCH mutation), from insect cells (protein, UniProt Q9BSV6 1-310)
chain: MLVVEVANGRSLVWGAEAVQALRERLGVGGRTVGALPRGPRQNSRLGLPLLLMPEEAWLLAEIGAVTLVSAPRPDSRHHSLALTSFKRQQEESFQEQSALAAEARETRRQELLEKITEGQAAKKQKLEQASGASSSQEAGSSQAAKEDETSDGQASGEQEEAGPSSSQAGPSNGVAPLPRSALLVQLATARPRPVKARPLDWRVQSKDWPHAGRPAHELRYSIYRDLWERGFFLSAAGKFGGDFLVYPGDPLRFHAHYIAQCWAPEDTIPLQDLVAAGRLGTSVRKTLLLCSPQPDGKVVYTSLQWASLQ
Take B1: in test [1], the binding result is “binds”.

B2: TSEN34, expressed in HEK293 cells (protein, UniProt Q9BSV6 1-310)
chain: MLVVEVANGRSLVWGAEAVQALRERLGVGGRTVGALPRGPRQNSRLGLPLLLMPEEARLLAEIGAVTLVSAPRPDSRHHSLALTSFKRQQEESFQEQSALAAEARETRRQELLEKITEGQAAKKQKLEQASGASSSQEAGSSQAAKEDETSDGQASGEQEEAGPSSSQAGPSNGVAPLPRSALLVQLATARPRPVKARPLDWRVQSKDWPHAGRPAHELRYSIYRDLWERGFFLSAAGKFGGDFLVYPGDPLRFHAHYIAQCWAPEDTIPLQDLVAAGRLGTSVRKTLLLCSPQPDGKVVYTSLQWASLQ
On to B2, for which, in test [2], the binding result is given as “binds”.

B3: TSEN34 H255A (active site mutant) (protein, UniProt Q9BSV6 1-310)
chain: MLVVEVANGRSLVWGAEAVQALRERLGVGGRTVGALPRGPRQNSRLGLPLLLMPEEARLLAEIGAVTLVSAPRPDSRHHSLALTSFKRQQEESFQEQSALAAEARETRRQELLEKITEGQAAKKQKLEQASGASSSQEAGSSQAAKEDETSDGQASGEQEEAGPSSSQAGPSNGVAPLPRSALLVQLATARPRPVKARPLDWRVQSKDWPHAGRPAHELRYSIYRDLWERGFFLSAAGKFGGDFLVYPGDPLRFAAHYIAQCWAPEDTIPLQDLVAAGRLGTSVRKTLLLCSPQPDGKVVYTSLQWASLQ
Take B3: in test [1], the binding entry is “binds”.

B4: TSEN34 R58W (PCH mutation), expressed in HEK293 cells (protein, UniProt Q9BSV6 1-310)
chain: MLVVEVANGRSLVWGAEAVQALRERLGVGGRTVGALPRGPRQNSRLGLPLLLMPEEAWLLAEIGAVTLVSAPRPDSRHHSLALTSFKRQQEESFQEQSALAAEARETRRQELLEKITEGQAAKKQKLEQASGASSSQEAGSSQAAKEDETSDGQASGEQEEAGPSSSQAGPSNGVAPLPRSALLVQLATARPRPVKARPLDWRVQSKDWPHAGRPAHELRYSIYRDLWERGFFLSAAGKFGGDFLVYPGDPLRFHAHYIAQCWAPEDTIPLQDLVAAGRLGTSVRKTLLLCSPQPDGKVVYTSLQWASLQ
In the case of B4, the binding entry in test [2] was “binds”.

B5: TSEN54 S93P (PCH mutation), from insect cells (protein, UniProt Q7Z6J9 1-526)
chain: MEPEPEPAAVEVPAGRVLSARELFAARSRSQKLPQRSHGPKDFLPDGSAAQAERLRRCREELWQLLAEQRVERLGSLVAAEWRPEEGFVELKPPAGKFWQTMGFSEQGRQRLHPEEALYLLECGSIHLFHQDLPLSIQEAYQLLLTDHTVTFLQYQVFSHLKRLGYVVRRFQPSSVLSPYERQLNLDASVQHLEDGDGKRKRSSSSPRSINKKAKALDNSLQPKSLAASSPPPCSQPSQCPEEKPQESSPMKGPGGPFQLLGSLGPSPGPAREGVGCSWESGRAENGVTGAGKRRWNFEQISFPNMASDSRHTLLRAPAPELLPANVAGRETDAESWCQKLNQRKEKLSRREREHHAEAAQFQEDVNADPEVQRCSSWREYKELLQRRQVQRSQRRAPHLWGQPVTPLLSPGQASSPAVVLQHISVLQTTHLPDGGARLLEKSGGLEIIFDVYQADAVATFRKNNPGKPYARMCISGFDEPVPDLCSLKRLSYQSGDVPLIFALVDHGDISFYSFRDFTLPQDVGH
For B5, the binding result in test [1] is recorded as “binds”.

B6: TSEN54 S93P (PCH mutation), expressed in HEK293 cells (protein, UniProt Q7Z6J9 1-526)
chain: MEPEPEPAAVEVPAGRVLSARELFAARSRSQKLPQRSHGPKDFLPDGSAAQAERLRRCREELWQLLAEQRVERLGSLVAAEWRPEEGFVELKPPAGKFWQTMGFSEQGRQRLHPEEALYLLECGSIHLFHQDLPLSIQEAYQLLLTDHTVTFLQYQVFSHLKRLGYVVRRFQPSSVLSPYERQLNLDASVQHLEDGDGKRKRSSSSPRSINKKAKALDNSLQPKSLAASSPPPCSQPSQCPEEKPQESSPMKGPGGPFQLLGSLGPSPGPAREGVGCSWESGRAENGVTGAGKRRWNFEQISFPNMASDSRHTLLRAPAPELLPANVAGRETDAESWCQKLNQRKEKLSRREREHHAEAAQFQEDVNADPEVQRCSSWREYKELLQRRQVQRSQRRAPHLWGQPVTPLLSPGQASSPAVVLQHISVLQTTHLPDGGARLLEKSGGLEIIFDVYQADAVATFRKNNPGKPYARMCISGFDEPVPDLCSLKRLSYQSGDVPLIFALVDHGDISFYSFRDFTLPQDVGH
On to B6, for which the binding result in test [2] is reported as “binds”.

B7: TSEN54 A307S (PCH mutation), from insect cells (protein, UniProt Q7Z6J9 1-526)
chain: MEPEPEPAAVEVPAGRVLSARELFAARSRSQKLPQRSHGPKDFLPDGSAAQAERLRRCREELWQLLAEQRVERLGSLVAAEWRPEEGFVELKSPAGKFWQTMGFSEQGRQRLHPEEALYLLECGSIHLFHQDLPLSIQEAYQLLLTDHTVTFLQYQVFSHLKRLGYVVRRFQPSSVLSPYERQLNLDASVQHLEDGDGKRKRSSSSPRSINKKAKALDNSLQPKSLAASSPPPCSQPSQCPEEKPQESSPMKGPGGPFQLLGSLGPSPGPAREGVGCSWESGRAENGVTGAGKRRWNFEQISFPNMSSDSRHTLLRAPAPELLPANVAGRETDAESWCQKLNQRKEKLSRREREHHAEAAQFQEDVNADPEVQRCSSWREYKELLQRRQVQRSQRRAPHLWGQPVTPLLSPGQASSPAVVLQHISVLQTTHLPDGGARLLEKSGGLEIIFDVYQADAVATFRKNNPGKPYARMCISGFDEPVPDLCSLKRLSYQSGDVPLIFALVDHGDISFYSFRDFTLPQDVGH
With B7, the binding result in test [1] was “binds”.

B8: TSEN2, expressed in HEK293 cells (protein, UniProt Q8NCE0 1-465)
chain: MAEAVFHAPKRKRRVYETYESPLPIPFGQDHGPLKEFKIFRAEMINNNVIVRNAEDIEQLYGKGYFGKGILSRSRPSFTISDPKLVAKWKDMKTNMPIITSKRYQHSVEWAAELMRRQGQDESTVRRILKDYTKPLEHPPVKRNEEAQVHDKLNSGMVSNMEGTAGGERPSVVNGDSGKSGGVGDPREPLGCLQEGSGCHPTTESFEKSVREDASPLPHVCCCKQDALILQRGLHHEDGSQHIGLLHPGDRGPDHEYVLVEEAECAMSEREAAPNEELVQRNRLICRRNPYRIFEYLQLSLEEAFFLVYALGCLSIYYEKEPLTIVKLWKAFTVVQPTFRTTYMAYHYFRSKGWVPKVGLKYGTDLLLYRKGPPFYHASYSVIIELVDDHFEGSLRRPLSWKSLAALSRVSVNVSKELMLCYLIKPSTMTDKEMESPECMKRIKVQEVILSRWVSSRERSDQDDL
Turning to B8, the binding result in test [2] is “binds”.

B9: tRNA splicing endonuclease subunit TSEN2 (protein, UniProt Q8NCE0 1-465)
chain: MAEAVFHAPKRKRRVYETYESPLPIPFGQDHGPLKEFKIFRAEMINNNVIVRNAEDIEQLYGKGYFGKGILSRSRPSFTISDPKLVAKWKDMKTNMPIITSKRYQHSVEWAAELMRRQGQDESTVRRILKDYTKPLEHPPVKRNEEAQVHDKLNSGMVSNMEGTAGGERPSVVNGDSGKSGGVGDPREPLGCLQEGSGCHPTTESFEKSVREDASPLPHVCCCKQDALILQRGLHHEDGSQHIGLLHPGDRGPDHEYVLVEEAECAMSEREAAPNEELVQRNRLICRRNPYRIFEYLQLSLEEAFFLVYALGCLSIYYEKEPLTIVKLWKAFTVVQPTFRTTYMAYHYFRSKGWVPKVGLKYGTDLLLYRKGPPFYHASYSVIIELVDDHFEGSLRRPLSWKSLAALSRVSVNVSKELMLCYLIKPSTMTDKEMESPECMKRIKVQEVILSRWVSSRERSDQDDL
As for B9, in test [1], the binding entry is recorded as “binds”.

B10: TSEN2 H377A (active site mutant) (protein, UniProt Q8NCE0 1-465)
chain: MAEAVFHAPKRKRRVYETYESPLPIPFGQDHGPLKEFKIFRAEMINNNVIVRNAEDIEQLYGKGYFGKGILSRSRPSFTISDPKLVAKWKDMKTNMPIITSKRYQHSVEWAAELMRRQGQDESTVRRILKDYTKPLEHPPVKRNEEAQVHDKLNSGMVSNMEGTAGGERPSVVNGDSGKSGGVGDPREPLGCLQEGSGCHPTTESFEKSVREDASPLPHVCCCKQDALILQRGLHHEDGSQHIGLLHPGDRGPDHEYVLVEEAECAMSEREAAPNEELVQRNRLICRRNPYRIFEYLQLSLEEAFFLVYALGCLSIYYEKEPLTIVKLWKAFTVVQPTFRTTYMAYHYFRSKGWVPKVGLKYGTDLLLYRKGPPFYAASYSVIIELVDDHFEGSLRRPLSWKSLAALSRVSVNVSKELMLCYLIKPSTMTDKEMESPECMKRIKVQEVILSRWVSSRERSDQDDL
For B10, the binding entry in test [1] is recorded as “binds”.

B11: TSEN2 Y309C (PCH mutation), expressed in HEK293 cells (protein, UniProt Q8NCE0 1-465)
chain: MAEAVFHAPKRKRRVYETYESPLPIPFGQDHGPLKEFKIFRAEMINNNVIVRNAEDIEQLYGKGYFGKGILSRSRPSFTISDPKLVAKWKDMKTNMPIITSKRYQHSVEWAAELMRRQGQDESTVRRILKDYTKPLEHPPVKRNEEAQVHDKLNSGMVSNMEGTAGGERPSVVNGDSGKSGGVGDPREPLGCLQEGSGCHPTTESFEKSVREDASPLPHVCCCKQDALILQRGLHHEDGSQHIGLLHPGDRGPDHEYVLVEEAECAMSEREAAPNEELVQRNRLICRRNPYRIFEYLQLSLEEAFFLVCALGCLSIYYEKEPLTIVKLWKAFTVVQPTFRTTYMAYHYFRSKGWVPKVGLKYGTDLLLYRKGPPFYHASYSVIIELVDDHFEGSLRRPLSWKSLAALSRVSVNVSKELMLCYLIKPSTMTDKEMESPECMKRIKVQEVILSRWVSSRERSDQDDL
For the molecule B11, the binding entry in test [2] is recorded as “binds”.

B12: TSEN2 Y309C (PCH mutation), from insect cells (protein, UniProt Q8NCE0 1-465)
chain: MAEAVFHAPKRKRRVYETYESPLPIPFGQDHGPLKEFKIFRAEMINNNVIVRNAEDIEQLYGKGYFGKGILSRSRPSFTISDPKLVAKWKDMKTNMPIITSKRYQHSVEWAAELMRRQGQDESTVRRILKDYTKPLEHPPVKRNEEAQVHDKLNSGMVSNMEGTAGGERPSVVNGDSGKSGGVGDPREPLGCLQEGSGCHPTTESFEKSVREDASPLPHVCCCKQDALILQRGLHHEDGSQHIGLLHPGDRGPDHEYVLVEEAECAMSEREAAPNEELVQRNRLICRRNPYRIFEYLQLSLEEAFFLVCALGCLSIYYEKEPLTIVKLWKAFTVVQPTFRTTYMAYHYFRSKGWVPKVGLKYGTDLLLYRKGPPFYHASYSVIIELVDDHFEGSLRRPLSWKSLAALSRVSVNVSKELMLCYLIKPSTMTDKEMESPECMKRIKVQEVILSRWVSSRERSDQDDL
As to B12, the binding entry in test [1] is given as “binds”.
